Measurements published in the supplement of paper PMC12067093, “Discovery and optimisation of a covalent ligand for TRIM25 and its application to targeted protein ubiquitination” (Chemical Science, 2025).
Some of the results follow.

Chains of the proteins cited; added tags and fusions are not shown. Lines headed by an entry give the natural chain unless they say otherwise; changes in a name come on top.
UniProt Q9Y487, whole entry, looked up: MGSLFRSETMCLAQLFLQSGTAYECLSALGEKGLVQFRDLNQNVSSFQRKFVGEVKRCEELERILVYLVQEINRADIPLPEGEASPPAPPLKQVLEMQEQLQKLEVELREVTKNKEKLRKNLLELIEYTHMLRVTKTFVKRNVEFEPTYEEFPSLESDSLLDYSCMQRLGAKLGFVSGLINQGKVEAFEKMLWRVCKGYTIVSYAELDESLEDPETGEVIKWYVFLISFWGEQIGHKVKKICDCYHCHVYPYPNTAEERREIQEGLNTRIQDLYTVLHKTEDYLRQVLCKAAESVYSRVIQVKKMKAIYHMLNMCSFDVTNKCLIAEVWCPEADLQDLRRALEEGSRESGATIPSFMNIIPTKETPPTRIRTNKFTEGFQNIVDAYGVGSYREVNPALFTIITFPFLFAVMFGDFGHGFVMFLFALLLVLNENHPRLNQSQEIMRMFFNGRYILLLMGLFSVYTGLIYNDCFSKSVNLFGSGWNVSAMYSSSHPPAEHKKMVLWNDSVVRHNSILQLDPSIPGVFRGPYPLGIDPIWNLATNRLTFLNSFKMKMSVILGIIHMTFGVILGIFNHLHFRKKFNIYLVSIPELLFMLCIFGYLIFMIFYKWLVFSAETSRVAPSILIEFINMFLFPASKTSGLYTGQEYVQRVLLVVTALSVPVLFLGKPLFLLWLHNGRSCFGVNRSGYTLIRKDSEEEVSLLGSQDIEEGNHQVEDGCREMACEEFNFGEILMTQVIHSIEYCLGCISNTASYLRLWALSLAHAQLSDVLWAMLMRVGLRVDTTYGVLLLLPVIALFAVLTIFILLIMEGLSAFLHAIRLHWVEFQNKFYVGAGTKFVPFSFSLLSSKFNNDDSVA
UniProt Q13315: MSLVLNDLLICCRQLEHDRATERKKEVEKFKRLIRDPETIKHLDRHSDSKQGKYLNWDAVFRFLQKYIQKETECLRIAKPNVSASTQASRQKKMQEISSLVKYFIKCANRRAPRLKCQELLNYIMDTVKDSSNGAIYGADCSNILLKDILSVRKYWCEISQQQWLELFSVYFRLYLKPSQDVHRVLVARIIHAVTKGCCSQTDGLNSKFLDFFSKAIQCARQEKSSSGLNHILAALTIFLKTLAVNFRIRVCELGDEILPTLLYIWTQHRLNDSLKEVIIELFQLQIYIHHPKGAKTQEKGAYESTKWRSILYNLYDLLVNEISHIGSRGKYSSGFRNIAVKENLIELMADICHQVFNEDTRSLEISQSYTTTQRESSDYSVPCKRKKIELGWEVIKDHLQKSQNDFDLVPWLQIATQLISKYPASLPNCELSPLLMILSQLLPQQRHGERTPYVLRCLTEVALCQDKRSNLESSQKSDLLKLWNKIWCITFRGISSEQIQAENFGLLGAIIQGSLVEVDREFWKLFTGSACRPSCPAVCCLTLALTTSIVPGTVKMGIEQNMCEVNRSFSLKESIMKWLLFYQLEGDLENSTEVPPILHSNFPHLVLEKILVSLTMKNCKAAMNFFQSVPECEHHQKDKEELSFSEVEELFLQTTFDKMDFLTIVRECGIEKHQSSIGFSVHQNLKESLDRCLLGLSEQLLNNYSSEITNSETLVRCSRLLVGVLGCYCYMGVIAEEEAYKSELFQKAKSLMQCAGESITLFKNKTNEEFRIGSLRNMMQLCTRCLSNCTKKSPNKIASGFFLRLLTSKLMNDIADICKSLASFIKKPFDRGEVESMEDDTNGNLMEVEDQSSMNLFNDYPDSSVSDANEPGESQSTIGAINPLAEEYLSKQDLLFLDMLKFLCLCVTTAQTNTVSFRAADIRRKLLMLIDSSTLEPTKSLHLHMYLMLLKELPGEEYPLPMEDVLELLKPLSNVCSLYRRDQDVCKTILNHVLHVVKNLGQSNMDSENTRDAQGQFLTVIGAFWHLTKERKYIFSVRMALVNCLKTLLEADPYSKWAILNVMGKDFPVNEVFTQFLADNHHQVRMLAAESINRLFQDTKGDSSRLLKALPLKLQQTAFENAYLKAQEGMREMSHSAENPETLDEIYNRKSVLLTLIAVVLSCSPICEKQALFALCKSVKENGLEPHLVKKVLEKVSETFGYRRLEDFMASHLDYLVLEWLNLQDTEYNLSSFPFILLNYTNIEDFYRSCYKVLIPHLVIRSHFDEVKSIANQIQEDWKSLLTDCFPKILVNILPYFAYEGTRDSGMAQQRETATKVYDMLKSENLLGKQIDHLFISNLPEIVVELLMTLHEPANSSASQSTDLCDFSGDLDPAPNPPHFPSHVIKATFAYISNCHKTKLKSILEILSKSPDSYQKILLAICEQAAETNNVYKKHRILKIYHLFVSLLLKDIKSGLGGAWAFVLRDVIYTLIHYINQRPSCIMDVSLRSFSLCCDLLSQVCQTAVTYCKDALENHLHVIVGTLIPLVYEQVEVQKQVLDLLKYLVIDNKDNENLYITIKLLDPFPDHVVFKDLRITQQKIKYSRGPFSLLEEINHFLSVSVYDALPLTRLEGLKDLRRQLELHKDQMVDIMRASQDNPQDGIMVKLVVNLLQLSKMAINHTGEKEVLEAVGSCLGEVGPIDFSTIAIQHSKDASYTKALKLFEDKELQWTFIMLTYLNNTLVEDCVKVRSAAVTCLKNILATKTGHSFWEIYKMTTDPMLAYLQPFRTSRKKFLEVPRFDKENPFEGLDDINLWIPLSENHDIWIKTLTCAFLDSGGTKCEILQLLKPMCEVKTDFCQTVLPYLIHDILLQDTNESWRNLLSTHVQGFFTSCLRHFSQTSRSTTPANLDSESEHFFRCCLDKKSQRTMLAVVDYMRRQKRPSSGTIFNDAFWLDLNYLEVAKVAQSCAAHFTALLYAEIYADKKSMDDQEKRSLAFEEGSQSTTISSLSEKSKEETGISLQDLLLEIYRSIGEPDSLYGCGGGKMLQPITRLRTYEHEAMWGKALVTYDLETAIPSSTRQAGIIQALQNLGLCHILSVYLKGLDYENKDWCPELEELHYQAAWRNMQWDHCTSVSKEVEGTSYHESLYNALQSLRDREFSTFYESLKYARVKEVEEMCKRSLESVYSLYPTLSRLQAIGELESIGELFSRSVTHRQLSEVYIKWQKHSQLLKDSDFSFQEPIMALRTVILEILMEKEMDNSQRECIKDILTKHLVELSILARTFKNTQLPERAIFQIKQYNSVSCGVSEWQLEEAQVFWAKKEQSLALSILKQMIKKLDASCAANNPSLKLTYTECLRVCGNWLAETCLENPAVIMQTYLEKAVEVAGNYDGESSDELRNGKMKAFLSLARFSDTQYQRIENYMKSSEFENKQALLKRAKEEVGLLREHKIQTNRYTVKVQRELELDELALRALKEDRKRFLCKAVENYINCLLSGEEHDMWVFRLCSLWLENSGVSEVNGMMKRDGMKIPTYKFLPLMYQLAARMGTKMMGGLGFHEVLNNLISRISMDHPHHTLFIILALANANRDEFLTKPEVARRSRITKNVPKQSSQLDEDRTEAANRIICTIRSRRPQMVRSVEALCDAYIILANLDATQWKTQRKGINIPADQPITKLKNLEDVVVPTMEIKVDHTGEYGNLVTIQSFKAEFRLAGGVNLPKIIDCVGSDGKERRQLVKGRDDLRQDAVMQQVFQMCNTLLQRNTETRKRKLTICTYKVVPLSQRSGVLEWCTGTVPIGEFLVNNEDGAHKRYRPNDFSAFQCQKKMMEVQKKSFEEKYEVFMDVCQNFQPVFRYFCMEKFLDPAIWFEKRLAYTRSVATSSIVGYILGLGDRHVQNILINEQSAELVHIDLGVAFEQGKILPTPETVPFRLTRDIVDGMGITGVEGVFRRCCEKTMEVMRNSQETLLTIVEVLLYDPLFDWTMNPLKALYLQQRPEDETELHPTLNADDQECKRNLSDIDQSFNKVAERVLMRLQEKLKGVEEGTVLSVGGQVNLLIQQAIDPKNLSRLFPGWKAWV
UniProt Q9Y2G3: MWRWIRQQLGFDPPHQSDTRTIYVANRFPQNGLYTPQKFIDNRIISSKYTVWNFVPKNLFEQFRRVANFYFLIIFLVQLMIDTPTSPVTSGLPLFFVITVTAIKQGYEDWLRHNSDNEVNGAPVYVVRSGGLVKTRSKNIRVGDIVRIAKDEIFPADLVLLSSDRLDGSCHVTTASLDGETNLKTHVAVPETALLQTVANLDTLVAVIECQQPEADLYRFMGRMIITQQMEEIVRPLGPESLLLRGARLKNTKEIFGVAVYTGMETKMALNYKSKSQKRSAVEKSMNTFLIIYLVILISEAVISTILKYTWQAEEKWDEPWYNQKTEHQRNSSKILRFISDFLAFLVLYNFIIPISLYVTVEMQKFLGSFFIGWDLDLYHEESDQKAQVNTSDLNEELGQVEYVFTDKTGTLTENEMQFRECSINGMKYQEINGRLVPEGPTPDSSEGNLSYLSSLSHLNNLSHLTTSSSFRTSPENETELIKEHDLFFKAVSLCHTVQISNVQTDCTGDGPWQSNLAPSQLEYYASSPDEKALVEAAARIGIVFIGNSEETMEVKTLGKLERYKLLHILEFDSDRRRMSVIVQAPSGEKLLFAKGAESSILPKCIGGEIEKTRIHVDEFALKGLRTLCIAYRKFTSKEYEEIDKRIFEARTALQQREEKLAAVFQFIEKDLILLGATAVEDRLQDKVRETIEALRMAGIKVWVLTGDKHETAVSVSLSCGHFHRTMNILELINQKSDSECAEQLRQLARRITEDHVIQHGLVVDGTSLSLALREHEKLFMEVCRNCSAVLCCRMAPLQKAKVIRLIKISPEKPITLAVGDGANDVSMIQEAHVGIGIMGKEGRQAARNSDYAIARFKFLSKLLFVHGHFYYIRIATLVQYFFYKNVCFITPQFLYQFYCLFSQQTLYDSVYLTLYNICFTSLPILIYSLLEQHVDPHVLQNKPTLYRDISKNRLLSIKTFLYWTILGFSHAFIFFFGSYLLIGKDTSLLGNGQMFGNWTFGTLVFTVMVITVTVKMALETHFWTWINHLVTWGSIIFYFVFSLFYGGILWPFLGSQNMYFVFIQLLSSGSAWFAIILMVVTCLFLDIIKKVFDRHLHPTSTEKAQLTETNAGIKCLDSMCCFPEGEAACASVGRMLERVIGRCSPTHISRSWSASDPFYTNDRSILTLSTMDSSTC
UniProt P21283, whole entry, looked up: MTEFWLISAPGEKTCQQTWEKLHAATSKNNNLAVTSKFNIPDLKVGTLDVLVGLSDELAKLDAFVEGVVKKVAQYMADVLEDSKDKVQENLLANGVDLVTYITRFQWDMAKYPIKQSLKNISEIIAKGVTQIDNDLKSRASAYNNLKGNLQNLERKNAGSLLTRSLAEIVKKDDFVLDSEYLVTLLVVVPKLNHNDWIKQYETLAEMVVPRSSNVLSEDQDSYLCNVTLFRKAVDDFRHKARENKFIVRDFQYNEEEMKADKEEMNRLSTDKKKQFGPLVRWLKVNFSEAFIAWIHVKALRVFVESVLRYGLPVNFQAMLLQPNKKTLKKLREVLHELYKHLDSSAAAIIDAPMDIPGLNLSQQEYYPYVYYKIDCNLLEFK
UniProt Q9ULH1: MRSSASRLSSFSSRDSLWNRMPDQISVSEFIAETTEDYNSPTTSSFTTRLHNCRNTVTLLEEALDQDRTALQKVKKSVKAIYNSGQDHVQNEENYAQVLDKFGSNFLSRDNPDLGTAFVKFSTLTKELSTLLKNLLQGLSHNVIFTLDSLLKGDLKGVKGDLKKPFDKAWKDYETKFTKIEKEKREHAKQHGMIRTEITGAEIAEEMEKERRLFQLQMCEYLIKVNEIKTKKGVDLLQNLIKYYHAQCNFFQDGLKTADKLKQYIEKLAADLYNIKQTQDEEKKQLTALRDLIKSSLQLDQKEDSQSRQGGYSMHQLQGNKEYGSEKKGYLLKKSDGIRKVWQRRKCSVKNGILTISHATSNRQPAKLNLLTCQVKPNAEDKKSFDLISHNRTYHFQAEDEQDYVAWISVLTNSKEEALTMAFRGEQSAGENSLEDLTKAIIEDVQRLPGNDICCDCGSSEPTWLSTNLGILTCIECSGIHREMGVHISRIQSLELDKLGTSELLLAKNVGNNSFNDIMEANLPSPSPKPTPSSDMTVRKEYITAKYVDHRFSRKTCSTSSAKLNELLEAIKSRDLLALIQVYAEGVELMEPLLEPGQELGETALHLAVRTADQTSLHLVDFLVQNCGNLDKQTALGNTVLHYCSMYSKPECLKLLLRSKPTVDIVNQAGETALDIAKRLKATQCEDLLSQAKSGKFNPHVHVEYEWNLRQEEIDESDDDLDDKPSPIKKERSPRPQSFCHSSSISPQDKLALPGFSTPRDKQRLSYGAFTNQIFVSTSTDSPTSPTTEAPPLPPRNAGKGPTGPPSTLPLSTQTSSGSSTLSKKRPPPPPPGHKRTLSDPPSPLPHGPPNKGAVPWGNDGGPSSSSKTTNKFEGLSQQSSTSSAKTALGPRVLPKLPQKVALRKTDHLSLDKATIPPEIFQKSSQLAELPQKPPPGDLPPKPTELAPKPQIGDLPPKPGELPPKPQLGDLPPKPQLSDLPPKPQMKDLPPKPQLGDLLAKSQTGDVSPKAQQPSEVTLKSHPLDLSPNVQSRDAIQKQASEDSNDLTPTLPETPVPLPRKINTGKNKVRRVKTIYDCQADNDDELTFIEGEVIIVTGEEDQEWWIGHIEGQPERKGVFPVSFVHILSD

Compound: CC1Cc2ccccc2N1C(=O)C1CCCN(C1)C(=O)CCl (mixture of isomers) [TRIM25 ligand 11 (diastereomer mixture)]
Assay: probe-labelled cysteine peptide fold change vs DMSO (competition) (log2 fold change); higher = less target engagement (more negative = stronger competition)
Conditions: THP-1, incubation time: 4 h
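Further: competitive chemoproteomic profiling in live THP-1 cells with an iodoacetamide desthiobiotin (IA-DTB) probe, comparing probe-labelled peptide intensities in compound-treated cells against DMSO-treated controls.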

Target	probe-labelled cysteine peptide fold change (10 µM)	probe-labelled cysteine peptide fold change (50 µM)
ATP13A1_Q9HD20_18_AAAAAVGNAVPCGARPCGVRPDGQPK (UniProt Q9HD20)	-0.133	-0.18
ATG16L1_Q676U5_506_TELLSCSR (UniProt Q676U5)	0.101	-0.251
ASMTL_O95671_546_VAESCKPGAGLLLVETLLDEEKR (UniProt O95671)	-0.0267	-0.218
ARRB2_P32121_270_CPVAQLEQDDQVSPSSTFCK (UniProt P32121)	0.677	0.57
ASTE1_Q2TB18_640_QNTSCSK (UniProt Q2TB18)	-0.089	-0.125
ASF1B_Q9NVP2_201_GLGLPGCIPGLLPENSMDCI (UniProt Q9NVP2)	0.064	0.0786
ASPM_Q8IZT6_441_IPECQGSK (UniProt Q8IZT6)	0.063	-0.0812
ATP6V0D1_P61421_209_FCTLLGGTTADAMCPILEFEADRR (UniProt P61421)	0.39	0.316
ATP1B3_P54709_250_EVTVECK (UniProt P54709)	-0.00132	0.0886
ATP1A1_P05023_464_CIELCCGSVK (UniProt P05023)	-0.142	-0.0156
ASXL2_Q76L83_827_ATATVASVSHPQGPSSCR (UniProt Q76L83)	0.237	0.075
ATP5MF_P56134_7_ASVGECPAPVPVK (UniProt P56134)	-0.012	-0.17
ATP2A1_O14983_561_CLALATR (UniProt O14983)	-0.0778	0.0181
ATG4B_Q9Y4P1_189_TSVPCAGATAFPADSDR (UniProt Q9Y4P1)	0.197	-0.0259
ATAD2_Q6PL18_463_GCLFYGPPGTGK (UniProt Q6PL18)	-0.0098	0.0526
ATP6V0A2_Q9Y487_58_RCEELER (UniProt Q9Y487)	0.15	0.179
ATL3_Q6DD88_429_ELYENFCK (UniProt Q6DD88)	0.089	0.00288
ATG3_Q9NT62_259+264_TVTIENHPHLPPPPMCSVHPCR (UniProt Q9NT62)	-0.0491	-0.27
ATIC_P31939_325_MSSFGDFVALSDVCDVPTAK (UniProt P31939)	-0.144	-0.188
ATG13_O75143_339_THCAATPSSSEDTETVSNSSEGR (UniProt O75143)	-0.413	-0.126
ATG7_O95352_358_CLLLGAGTLGCNVAR (UniProt O95352)	-0.0759	-0.0837
ATP6V0A1_Q93050_58_CEEMDRK (UniProt Q93050)	0.00168	0.0322
ATF7IP_Q6VMQ6_955_AADSTSQCGK (UniProt Q6VMQ6)	-0.0275	-0.0506
ATM_Q13315_2323_KLDASCAANNPSLK (UniProt Q13315)	-0.0238	-0.0299
ATP2A2_P16615_560_CLALATHDNPLRR (UniProt P16615)	-0.0194	0.0413

Target	probe-labelled cysteine peptide fold change (10 µM)	probe-labelled cysteine peptide fold change (50 µM)
ARPC1B_O15143_346_CSQFCTTGMDGGMSIWDVK (UniProt O15143)	-0.0666	-0.0491
ATP6V1B2_P21281_112_KTSCEFTGDILR (UniProt P21281)	0.00776	0.0145
ATP6V1H_Q9UI12_312_QEYALAMIQCK (UniProt Q9UI12)	-0.0722	-0.0728
ATF7_P17544_409_DCPVTALQK (UniProt P17544)	-0.17	-0.184
ATP2B1_P20020_463_HLDACETMGNATAICSDK (UniProt P20020)	0.101	-0.00247
ATAD2B_Q9ULI0_53_AASCPAAK (UniProt Q9ULI0)	-0.101	-0.101
ATP6V1B2_P21281_162_GPVVLAEDFLDIMGQPINPQCR (UniProt P21281)	-0.264	0.332
ARRB1_P49407_125_KLGEHAYPFTFEIPPNLPCSVTLQPGPEDTGK (UniProt P49407)	-0.00444	-0.04
ATP2A3_Q93084_581_KEDMELDDCSK (UniProt Q93084)	-0.00739	-0.197
ATP11B_Q9Y2G3_422_ECSINGMK (UniProt Q9Y2G3)	-0.0547	-0.122
ATM_Q13315_2473_AVENYINCLLSGEEHDMWVFR (UniProt Q13315)	-0.0257	-0.0723
ATIC_P31939_146_VTVVCEPEDYVVVSTEMQSSESK (UniProt P31939)	-0.0214	-0.177
ATIC_P31939_434_YTQSNSVCYAK (UniProt P31939)	0.0597	0.138
ASMTL_O95671_441_LTACQVATAFNLSR (UniProt O95671)	0.111	0.155
ATM_Q13315_2801_YRPNDFSAFQCQK (UniProt Q13315)	-0.029	-0.0597
ASXL2_Q76L83_1225_ETLSTSDCLASK (UniProt Q76L83)	-0.0078	-0.1
ATP6V0A2_Q9Y487_323+330_CLIAEVWCPEADLQDLRR (UniProt Q9Y487)	-0.1	-0.102
ATIC_P31939_363_NGNYCVLQMDQSYKPDENEVR (UniProt P31939)	-0.026	0.0213
ARPC1B_O15143_70_IVTCGTDR (UniProt O15143)	-0.0524	0.0793
ATP6V1C1_P21283_376_IDCNLLEFK (UniProt P21283)	0.0431	0.129
ASAP1_Q9ULH1_373_LNLLTCQVKPNAEDK (UniProt Q9ULH1)	0.131	0.148
ATP6V1A_P38606_240_VLDALFPCVQGGTTAIPGAFGCGK (UniProt P38606)	-0.151	-0.00325
ARPC2_O15144_120_NCFASVFEK (UniProt O15144)	0.028	-0.00701
ARRB1_P49407_251+269_CPVAMEEADDTVAPSSTFCK (UniProt P49407)	-0.138	-0.118
ATP1A1_P05023_518_CSSILLHGK (UniProt P05023)	0.069	-0.0195

Reprinted at random: 5 records from the list
Target	probe-labelled cysteine peptide fold change (10 µM)	probe-labelled cysteine peptide fold change (50 µM)
ATIC_P31939_146_VTVVCEPEDYVVVSTEMQSSESK (UniProt P31939)	-0.0214	-0.177
ARPC1B_O15143_70_IVTCGTDR (UniProt O15143)	-0.0524	0.0793
ATP1A1_P05023_518_CSSILLHGK (UniProt P05023)	0.069	-0.0195
ATP11B_Q9Y2G3_422_ECSINGMK (UniProt Q9Y2G3)	-0.0547	-0.122
ATP6V1B2_P21281_162_GPVVLAEDFLDIMGQPINPQCR (UniProt P21281)	-0.264	0.332

(list continues)

Target	probe-labelled cysteine peptide fold change (10 µM)	probe-labelled cysteine peptide fold change (50 µM)
ATG7_O95352_368_CLLLGAGTLGCNVAR (UniProt O95352)	0.0347	-0.0203
ATP2A3_Q93084_498_SMSVYCTPTRPHPTGQGSK (UniProt Q93084)	0.137	-0.133
ATP6V0D1_P61421_39_AGVLSQADYLNLVQCETLEDLK (UniProt P61421)	-0.0789	0.178
ATM_Q13315_1821_CEILQLLK (UniProt Q13315)	-0.00288	-0.125
ATP13A1_Q9HD20_410_ATTGLKPVDSGCVAYVLR (UniProt Q9HD20)	0.0177	0.055
ATOX1_O00244_41_KVCIESEHSMDTLLATLKK (UniProt O00244)	0.0597	0.0181
ATAD2_Q6PL18_1388_MEQEVENFSCSR (UniProt Q6PL18)	-0.0689	-0.0859
ATAD2B_Q9ULI0_816_TPEESCAQIFR (UniProt Q9ULI0)	0.0176	-0.039
ATG7_O95352_524_QQGAGDLCPNHPVASADLLGSSLFANIPGYK (UniProt O95352)	0.00963	-0.039
ASMTL_O95671_333_VDASACGMER (UniProt O95671)	-0.0125	-0.111
ATP2B4_P23634_24_EGDFGCTVMELR (UniProt P23634)	-0.0564	-0.213
ATAD1_Q8NBU5_359_DAAFQNVLTHVCLD (UniProt Q8NBU5)	-0.0942	0.00918
ATP6V1B2_P21281_258_SDFEENGSMDNVCLFLNLANDPTIER (UniProt P21281)	-0.196	-0.0904
ATAD2_Q6PL18_1270_IACNGDASSSQIIHISDENEGK (UniProt Q6PL18)	0.15	-0.177
ATP11B_Q9Y2G3_741_SDSECAEQLR (UniProt Q9Y2G3)	0.0234	0.0768
ASCC3_Q8N3C0_1315_HPPHTELLDLQPLPITALGCK (UniProt Q8N3C0)	0.332	0.238
ASNA1_O43681_55_TTCSCSLAVQLSK (UniProt O43681)	0.0423	0.0978
ASCC3_Q8N3C0_366_AGEDLEVSEGLMCFDPK (UniProt Q8N3C0)	0.00436	-0.276
ATF2_P15336_79_NCEEVGLFNELASPFENEFK (UniProt P15336)	-0.151	-0.39
ATRX_P46100-6_537_GGADCQEVPQDK (UniProt P46100)	-0.0702	-0.104
ATP13A1_Q9HD20_18_AAAAAVGNAVPCGARPCGVRPDGQPKPGPQPR (UniProt Q9HD20)	-0.187	-0.278
ATP6V1C1_P21283_225_SSNVLSEDQDSYLCNVTLFR (UniProt P21283)	0.0787	0.202
ASNS_P08243_43+44_FENVNGYTNCCFGFHR (UniProt P08243)	-0.00447	0.0682
ASAP1_Q9ULH1_219_LFQLQMCEYLIK (UniProt Q9ULH1)	0.00821	0.276
ATG9A_Q7Z3C6_122_VTLPDAFLPAQVCSAR (UniProt Q7Z3C6)	0.159	0.293
